{
  "sequences": {"note": "Protein sequences, listed by entry. Tags and fused reporters are not part of them. Residues count along the entry.", "UniProt P04070, 43-197": "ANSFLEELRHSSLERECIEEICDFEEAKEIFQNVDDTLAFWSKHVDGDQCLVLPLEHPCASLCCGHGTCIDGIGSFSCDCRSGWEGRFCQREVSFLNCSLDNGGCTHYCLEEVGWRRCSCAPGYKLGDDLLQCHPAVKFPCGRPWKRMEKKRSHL", "UniProt P04070, 212-461": "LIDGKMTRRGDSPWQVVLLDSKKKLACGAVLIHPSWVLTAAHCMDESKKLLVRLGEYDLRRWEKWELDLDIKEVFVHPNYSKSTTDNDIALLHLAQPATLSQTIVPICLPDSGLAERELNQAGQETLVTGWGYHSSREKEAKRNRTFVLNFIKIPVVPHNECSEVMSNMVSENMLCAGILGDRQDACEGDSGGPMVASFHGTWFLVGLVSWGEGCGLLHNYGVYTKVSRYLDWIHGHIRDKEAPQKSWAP"},
  "source": "patent US5279956A",
  "about": "“Activated protein C polypeptides and anti-peptide antibodies, diagnostic methods and systems for inhibiting activated protein C” (The Scripps Research Institute, priority 1991, dated 1994)",
  "key": {"anti-(390-404) antibody": {"tested_on": "anti-(390-404) antibody", "assay": "Solid-phase ELISA: binding of anti-(390-404) antibody to immobilized peptides and PC", "parameters": "species or system rabbit", "conditions": "for Anti-(390-404) (Absorbance/20 min.): wells coated with 50 μM peptide or 10 μg/ml PC, 2 μg/ml anti-(390-404) antibody, mean of duplicates", "description": "To determine the immunospecificity of the rabbit antisera obtained in Example 2b, ELISA assays were performed. Briefly, 50 μl of either 50 μM peptide-(390-404) prepared in Example 1 or 10 μg/ml of PC or APC prepared in Example 2c in a buffer consisting of 0.05M sodium carbonate (Na2 CO3) and 0.02% NaN3 at pH 9.0 were admixed into the wells of microtiter plates. The plates were maintained at 37° C. for one hour to permit the antigens to become operatively affixed to the well walls. After washing the antigen-coated wells with TBS, the wells were blocked with 250 μl/well of 10% bovine serum albumin (BSA) (Sigma) in TBS for one hour at 22° C. The blocking solution was then removed and the wells were subsequently washed five times with 250 μl/well of maintenance buffer (0.05M Tris-HCl, 0.1M NaCl, 0.02% NaN3, 1 mg/ml BSA, 5 mM CaCl2, 0.01% Tween 20 at pH 7.4). Fifty μl of rabbit non-immune or specific antiserum serially diluted in maintenance buffer was then admixed to the washed wells and maintained for one hour at 37° C. to allow formation of a solid liquid phase immunoreaction products. The wells were then washed three times with maintenance buffer followed by admixture of 50 μl of 2.0 μg/ml of secondary antibody (polyclonal biotinylated goat-anti-rabbit-IgG) (Pierce Biochemicals) diluted in maintenance buffer to each well for the detection of immunoreactant products. The plates were maintained for 1 hour at 37° C. after which time the secondary antibody solution was removed. After washing the wells as described above, 50 μl of 2.0 μg/ml streptavidin-alkaline-phosphatase (Pierce Biochemicals) in maintenance buffer was admixed into each well and maintained for 30 minutes at 37° C. Detection of specific immunoreaction products was obtained by admixture of 150 μl/well of 5 mg/ml p-nitrophenylphosphate (PNPP) (Pierce Biochemicals) in 0.1M diethanolamine and 0.02% NaN3 at pH 9.6 followed by measurement of the change in absorbance at 405 nm over time using the EL312 Microplate Bio-Kinetics Reader and the KinetiCalc Software Program (Biotek Instruments, Inc., Vt.). Non-specific binding was considered as the measured absorbance in 10% BSA blocked wells which served as negative controls without the preceding coating of a specific protein or peptide. Under the described conditions, non-specific binding never exceeded more than 5% of the specific binding.\nThe specificity of immunoaffinity purified anti-(390-404) antibody towards peptide-(390-404) and PC was evaluated by measuring the binding in solid-phase ELISA of the antibody to immobilized peptides including -(384-398), -(390-404), -(396-410), -(404-390), and -K395A-(390-404) listed in Table 1 with their corresponding SEQ ID NO, and to PC. For the ELISA assay, 50 μM of each peptide and 10 μg/ml of PC protein were admixed into separate wells of microtiter plates as described in Example 2c. After blocking the peptide- or protein-coated wells as described in Example 2c, 50 μl of 2 μg/ml immunoaffinity purified anti-(390-404) antibody in maintenance buffer were admixed into each well and maintained for one hour at 37° C. to form an immunoreaction product. The detection and measurement of specific immunoreaction products was accomplished by admixture of streptavidin-alkaline-phosphatase followed by PNPP as described previously for the ELISA in Example 2c."}, "APC [1]": {"biological_target": "T1, APC (Homo sapiens, UniProt P04070)", "T1 construct": "begins at amino acid residue position 158 and ends at 419; The light chain is 155 amino acid residues in length; tissue Factor IX concentrate from Immuno AG, Vienna; thrombin from Enzyme Research Laboratories", "assay": "APC anticoagulant activity, APTT and Xa-1-stage coagulation assays (mean or both)", "format": "biochemical", "description": "The effect of the synthetic peptides on APC anticoagulant activity were determined using the APTT assay in the presence of either normal citrate anticoagulated plasma (NHP) or protein S depleted plasma (PSDP). The assays were performed essentially as described. See Marlar et al., Blood, 59:1067-1072 […]; Suzuki et al., J. Biol. Chem., 258:163-168 (1983); Gruber et al., Blood, 73:639-642 (1989); Ohlin et al., Biochem., 29:644-651 (1990). NHP was purchased from George King Bio-Medical, Inc. (Overland Park, Kans.). PSDP was prepared from a normal human citrate-anticoagulated plasma pool from ten healthy donors. Protein S was immunodepleted from the NHP by immunoaffinity chromatography of NHP over an anti-protein S antibody column to form PSDP. The anti-protein S antibody column was prepared by coupling 100 mg of a monoclonal, high-affinity, calcium-independent anti-PS antibody, designated S7, to 30 ml of CNBr-activated Sepharose 4B (Pharmacia) as described in Example 2c1). […]\n(§1) Once the optimal concentration of APC was determined, peptides from Table 2 were then separately admixed for a final concentration of 500 μM with 10 nM APC in 100 μl of TBS-BSA at pH 7.4 to form peptide-APC admixtures. […] The time for clot formation was measured by an Electra 700 Automatic Coagulation Timer (Medical Laboratory Automation, Inc., Mount Vernon, N.Y.). Each peptide's effect was determined in duplicate. […]"}, "APC [2]": {"biological_target": "T1, APC", "assay": "Activated partial thromboplastin time (APTT) coagulation assay of APC anticoagulant activity", "format": "biochemical", "conditions": "2.5 nM APC, normal human plasma, 0 to 40 μM peptide", "description": "The effect of the synthetic peptides on APC anticoagulant activity were determined using the APTT assay in the presence of either normal citrate anticoagulated plasma (NHP) or protein S depleted plasma (PSDP). The assays were performed essentially as described. See Marlar et al., Blood, 59:1067-1072 […]; Suzuki et al., J. Biol. Chem., 258:163-168 (1983); Gruber et al., Blood, 73:639-642 (1989); Ohlin et al., Biochem., 29:644-651 (1990). NHP was purchased from George King Bio-Medical, Inc. (Overland Park, Kans.). PSDP was prepared from a normal human citrate-anticoagulated plasma pool from ten healthy donors. […] Residual total protein S content in the resultant PSDP was less than 0.1% protein S as determined by quantitative immunoblotting, by solid-phase ELISA for total protein S and by electroimmunoassay.\nFor the APTT assay, APC was prepared as described in Example 2c2). The specific anticoagulant activity of APC was determined to be 250 Units/mg. […]\nas §1"}, "APC [3]": {"biological_target": "T1, APC", "assay": "Amidolytic activity of APC towards chromogenic substrate S-2366", "format": "biochemical", "description": "The effects of PC-derived inhibitory synthetic peptides on the amidolytic activity of APC were evaluated to determine if the peptides inhibited APC anticoagulant activity by blocking a region in or close to the active site of the enzyme involved in cleavage of a small substrate such as S-2366 (Kabi-Vitrum) or involved in the site of interaction with the recombinant mutant (Arg^358)α1 -antitrypsin (α1 -AT) (Transgene, Strasbourg, France), the latter of which is described in Example 5a4) below. The assay was performed as described by Marlar et al., supra; and Suzuki et al., supra.\nThe amidolytic activity of APC toward the peptide substrate S-2366 was measured in the presence of various PC synthetic peptides prepared in Example 1. […] The hydrolysis of the substrate was monitored by the change in absorbance at 405 nm at 37° C. over time using an EL312 Microplate Bio-Kinetics Reader (BIO-TEK Instruments, Inc. Vt.).\nThe amidolytic activity of APC toward the peptide substrate S-2366 was measured in the presence of anti-(390-404) antibody. […] The hydrolysis of the substrate was monitored by the change in absorbance at 405 nm over time using an EL312 Microplate Bio-Kinetics Reader (BIO-TEK Instruments, Inc. Vt.)."}},
  "note": "Entries after “also recorded” stand apart in the source; their conditions may differ. Not every detail of the peptide structures is certain; ends, links or a residue may be inferred. For some assays here: For at least one compound, name, drawing or mass did not settle the structure. No end group written: not given here.",
  "data": [
    {"substance": "HIWDLYRSVKTYVGY-NH2 [peptide-(404-390), HIWDLYRSVKTYVGY]", "values": [
      {"measurement": "binding of anti-(390-404) antibody to immobilized peptide or PC", "setting": "anti-(390-404) antibody; solid-phase ELISA", "value": "did not bind significantly; also recorded: did not significantly bind"},
      {"measurement": "Anti-(390-404) (Absorbance/20 min.)", "setting": "anti-(390-404) antibody", "value": 5, "unit": "Absorbance/20 min."},
      {"measurement": "inhibition of APC anticoagulant activity", "setting": "APC [1]", "value": "failed to inhibit"},
      {"measurement": "APC inhibitory activity in APTT assay", "setting": "APC [2]", "value": "no APC inhibitory activity"}
    ]},
    {"substance": "SGLLHNYGVYTKVSR-NH2 [peptide-(384-398), -SGLLHNYGVYTKVSR]", "values": [
      {"measurement": "IC50", "setting": "APC [1]; final peptide concentration at which 50% inhibition of APC activity was observed", "value": 425, "unit": "µM"}
    ]},
    {"substance": "VSRYLDWIHGHIRDK-NH2 [peptide-(396-410), VSRYLDWIHGHIRDK]", "values": [
      {"measurement": "binding of anti-(390-404) antibody to immobilized peptide or PC", "setting": "anti-(390-404) antibody; solid-phase ELISA", "value": "did not bind significantly; also recorded: did not significantly bind"},
      {"measurement": "Anti-(390-404) (Absorbance/20 min.)", "setting": "anti-(390-404) antibody", "value": 3, "unit": "Absorbance/20 min."},
      {"measurement": "APC amidolytic activity towards S-2366, A405 /5 min", "setting": "APC [3]; APC + 500 μM peptide", "value": 0.364, "unit": "A405 /5 min"},
      {"measurement": "effect on APC amidolytic activity towards S-2366", "setting": "APC [3]; all concentrations up to 500 μM", "value": "did not significantly alter"}
    ]},
    {"substance": "YGVYTAVSRYLDWIH-NH2 [peptide-K395A-(390-404), YGVYTAVSRYLDWIH]", "values": [
      {"measurement": "binding of anti-(390-404) antibody compared to binding to peptide-(390-404)", "setting": "anti-(390-404) antibody; solid-phase ELISA", "value": "Fifteen"},
      {"measurement": "Anti-(390-404) (Absorbance/20 min.)", "setting": "anti-(390-404) antibody", "value": 66, "unit": "Absorbance/20 min."}
    ]}
  ]
}
